Results deposited as PubChem BioAssay AID1259308 (NCATS, 2017)

Aim: 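Knock-downs that increase output of a recombinant reporter protein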 (primary screen)
Cells: human HEK293 embryonic kidney cells stably expressing firefly luciferase (HEK-CMV-Luc2-Hygro)
Reagents: single siRNA against human genes, 0.8 pmol siRNA per well
Timing: 72 h
Measured: 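Reporter luminescence and viable-cell signal on separate replicate plates, given as percent of non-targeting control and median/MAD z-scores, plus per-cell luciferase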
Reading the numbers: total luciferase, z-score and total luciferase, % of control: higher = more reporter protein produced
Active means: 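Active when the median/MAD z-score for overall luciferase is greater than 3; a gene was taken forward for validation with new siRNAs if at least two of its three siRNAs passed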
Meaning of the calls: active = raised luciferase; inactive = no rise
The whole screen tested about 59,000 reagents; shown is a part drawn at random. About 1,510 of all reagents (2.6%) count as active. 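Calls use total luciferase alone and ignore viability, so some active siRNAs may act by altering cell number.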 Reagents against one gene are numbered here. Not all columns of the deposit are shown. No sequences are given here.

Gene	siRNA no.	total luciferase, z-score	total luciferase, % of control	call
ANKK1 (ankyrin repeat and kinase domain containing 1)	1	0.191	85.7	inactive
ANKK1 (ankyrin repeat and kinase domain containing 1)	2	0.011	82.1	inactive
ANKK1 (ankyrin repeat and kinase domain containing 1)	3	-1.32	55.7	inactive
EXO1 (exonuclease 1)	1	-1.3	56.1	inactive
EXO1 (exonuclease 1)	2	0.201	85.9	inactive
EXO1 (exonuclease 1)	3	1.89	119	inactive
MED13L (mediator complex subunit 13L)	1	1.08	103	inactive
MED13L (mediator complex subunit 13L)	2	-1.83	45.6	inactive
MED13L (mediator complex subunit 13L)	3	-0.985	62.3	inactive
NFX1 (nuclear transcription factor, X-box binding 1)	1	0.0271	82.4	inactive
NFX1 (nuclear transcription factor, X-box binding 1)	2	-0.0272	81.3	inactive
NFX1 (nuclear transcription factor, X-box binding 1)	3	-1.16	58.7	inactive
OR6Y1 (olfactory receptor family 6 subfamily Y member 1)	1	0.626	94.3	inactive
OR6Y1 (olfactory receptor family 6 subfamily Y member 1)	2	0.481	91.5	inactive
OR6Y1 (olfactory receptor family 6 subfamily Y member 1)	3	3.18	145	active
SLC49A3	1	-0.742	67.1	inactive
SLC49A3	2	0.192	85.7	inactive
SLC49A3	3	0.65	94.8	inactive
GFPT2 (glutamine--fructose-6-phosphate transaminase 2)	1	-0.614	69.7	inactive
GFPT2 (glutamine--fructose-6-phosphate transaminase 2)	2	0.311	88.1	inactive
GFPT2 (glutamine--fructose-6-phosphate transaminase 2)	3	-0.947	63	inactive
CEP97 (centrosomal protein 97)	1	-1.64	49.2	inactive
CEP97 (centrosomal protein 97)	2	-0.196	78	inactive
CEP97 (centrosomal protein 97)	3	-0.425	73.4	inactive
SMC4 (structural maintenance of chromosomes 4)	1	-0.567	70.6	inactive
SMC4 (structural maintenance of chromosomes 4)	2	0.454	90.9	inactive
SMC4 (structural maintenance of chromosomes 4)	3	-0.406	73.8	inactive
NMNAT3 (nicotinamide nucleotide adenylyltransferase 3)	1	1.63	114	inactive
NMNAT3 (nicotinamide nucleotide adenylyltransferase 3)	2	-0.801	65.9	inactive
NMNAT3 (nicotinamide nucleotide adenylyltransferase 3)	3	-0.64	69.2	inactive
SHBG (sex hormone binding globulin)	1	2.81	138	inactive
SHBG (sex hormone binding globulin)	2	-0.546	71	inactive
SHBG (sex hormone binding globulin)	3	1.81	118	inactive
FAM86C1P (family with sequence similarity 86 member C1, pseudogene)	1	-0.73	67.4	inactive
FAM86C1P (family with sequence similarity 86 member C1, pseudogene)	2	0.311	88.1	inactive
FAM86C1P (family with sequence similarity 86 member C1, pseudogene)	3	-0.883	64.3	inactive
PSMD11 (proteasome 26S subunit, non-ATPase 11)	1	0.857	98.9	inactive
PSMD11 (proteasome 26S subunit, non-ATPase 11)	2	-0.908	63.8	inactive
PSMD11 (proteasome 26S subunit, non-ATPase 11)	3	0.665	95.1	inactive

Individual results from the list.
For “total luciferase, z-score”, NFX1 (nuclear transcription factor, X-box binding 1) #1 is entered as 0.0271
Under “call”, FAM86C1P (family with sequence similarity 86 member C1, pseudogene) #1 shows inactive
Value for SHBG (sex hormone binding globulin) #3 under “call”: inactive
Under “total luciferase, z-score”, NMNAT3 (nicotinamide nucleotide adenylyltransferase 3) #1 has 1.63
